# Laboratory results: PubChem BioAssay AID602196 (INSERM, 2012)
# Screen: 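Genes whose knock-down alters cisplatin killing of lung cancer cells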
# System: human A549 lung cancer cells
# Reagent: siRNA pair against human genes
# Time to read-out: 48 h transfection before cisplatin; time from cisplatin to read-out not stated
# Conditions: cisplatin at a dose killing half of control-siRNA cells; exact dose and duration not given
# Measurement: 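Cisplatin cell death as a shift from the 50% death seen with control siRNA; siRNAs toxic or growth-blocking alone scored 0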
# Scale: two-siRNA summed score (-2 to +2): higher = both siRNAs protect from cisplatin killing; -2 means both sensitise; mean protection from cisplatin (shift in death) and protection from cisplatin (shift in death), siRNA C: higher = protection from cisplatin killing
# Rule for the call: 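siRNAs harmful alone (LDH or WST-1) get 0; others get +1 for less and -1 for more cisplatin killing; genes are active when the two siRNAs give the same sign, summing to ±2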
# Calls: active = both siRNAs shift cisplatin killing the same way; inactive = no consistent shift, or siRNA harmful alone
# The whole screen tested about 23,000 reagents; below is an unselected part. 455 of them (2%) were called active. 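Active includes both protection and sensitisation; some change values fall well beyond the stated -50 to +50 range.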 The numbers tell different reagents against one gene apart. Not all columns of the deposit are shown. The record does not give: the amount of reagent.
gene,reagent no.,two-siRNA summed score (-2 to +2),mean protection from cisplatin (shift in death) (%),"protection from cisplatin (shift in death), siRNA C (%)",call
TMEM51 (transmembrane protein 51),1,0,-1.6,-9.5,inactive
RNF208 (ring finger protein 208),1,0,9.7,8.2,inactive
LY96 (lymphocyte antigen 96),1,0,4.9,6.8,inactive
TMEM169 (transmembrane protein 169),1,0,-0.9,6.8,inactive
RTL3 (retrotransposon Gag like 3),1,0,7.6,-8.7,inactive
"ADGRE4P (adhesion G protein-coupled receptor E4, pseudogene)",1,-2,-12.8,-17.1,active
CASP3 (caspase 3),1,0,19.6,4.4,inactive
LOC163404,1,0,4.2,8.1,inactive
RUNDC3A (RUN domain containing 3A),1,0,8.6,12.8,inactive
TM4SF20 (transmembrane 4 L six family member 20),1,0,-5.7,0.7,inactive
DOK5 (docking protein 5),1,0,-4.1,-10.4,inactive
AMER3 (APC membrane recruitment protein 3),1,1,12.4,5.7,inactive
MPPED1 (metallophosphoesterase domain containing 1),1,0,6.6,6.2,inactive
"GPAT2 (glycerol-3-phosphate acyltransferase 2, mitochondrial)",1,0,2.6,-5.7,inactive
PHGDH (phosphoglycerate dehydrogenase),1,0,-3.8,5.2,inactive
LOC169834,1,0,-6,-6.4,inactive
KCNK6 (potassium two pore domain channel subfamily K member 6),1,0,-6.4,-9.3,inactive
ZSCAN25 (zinc finger and SCAN domain containing 25),1,0,3.9,-6.9,inactive
CSF2RB (colony stimulating factor 2 receptor subunit beta),1,0,-4.6,-1.2,inactive
ODF2L (outer dense fiber of sperm tails 2 like),1,0,9.2,14.8,inactive
ERC2 (ELKS/RAB6-interacting/CAST family member 2),1,0,-2.4,-7.4,inactive
CTBS (chitobiase),1,0,-3.4,0.3,inactive
ALDH7A1 (aldehyde dehydrogenase 7 family member A1),1,1,27.1,31.1,inactive
"GIMAP4 (GTPase, IMAP family member 4)",1,0,-7.4,-8.8,inactive
DNAJC25-GNG10 (DNAJC25-GNG10 readthrough),1,-1,-10.2,1.3,inactive
ZDHHC15 (zDHHC palmitoyltransferase 15),1,0,12.1,16.9,inactive
OR2J2 (olfactory receptor family 2 subfamily J member 2),1,0,16,15.1,inactive
TRPM2,1,0,-1.8,15.1,inactive
TUBB4B (tubulin beta 4B class IVb),1,0,5.1,12.5,inactive
RERGL (RERG like),1,0,12.6,15,inactive
BRD2 (bromodomain containing 2),1,-1,-6.1,-17.6,inactive
LOC402031,1,0,14.9,12.3,inactive
COTL1 (coactosin like F-actin binding protein 1),1,1,8.4,0.4,inactive
UBFD1 (ubiquitin family domain containing 1),1,0,-2.1,0.5,inactive
LOC339351,1,0,21.8,5.7,inactive
LOC440503,1,0,8.8,1.3,inactive
MT2A (metallothionein 2A),1,0,-4.5,-32.1,inactive
NLRP1 (NLR family pyrin domain containing 1),1,-2,-43.4,-37.2,active
RNF32-DT (RNF32 divergent transcript),1,0,3.7,4.4,inactive
LOC441758,1,0,9.3,10.2,inactive
LOC441515,1,1,10.8,17.2,inactive
GOLGA2 (golgin A2),1,-2,-17,-20.9,active
PIK3IP1 (phosphoinositide-3-kinase interacting protein 1),1,0,-3.2,-5.7,inactive
C22orf39 (chromosome 22 open reading frame 39),1,0,0.9,-6.2,inactive
DUSP11 (dual specificity phosphatase 11),1,0,-0.8,-26.4,inactive
MAGEC2 (MAGE family member C2),1,0,-2.8,4.7,inactive
LOC400547,1,0,6.4,8.4,inactive
LOC442149,1,0,4.4,1.9,inactive
UNKL (unk like zinc finger),1,0,0.1,-0.9,inactive
UNKL (unk like zinc finger),2,1,21.5,7.4,inactive
PGBD5 (piggyBac transposable element derived 5),1,0,8.7,1.4,inactive
FKBP7 (FKBP prolyl isomerase 7),1,0,-13,-10.7,inactive
KGD4 (alpha-ketoglutarate dehydrogenase subunit 4),1,0,0.2,-5.7,inactive
PDE5A (phosphodiesterase 5A),1,0,3.3,2.5,inactive
OCEL1 (occludin/ELL domain containing 1),1,0,1,-10,inactive
SLC25A38,1,0,-11.3,-8.8,inactive
DNAJC22 (DnaJ heat shock protein family (Hsp40) member C22),1,0,0.5,5,inactive
